From PubChem BioAssay AID445 (National Center for Advancing Translational Sciences (NCATS), 2006)
This is one part of the list. Further columns of the screen follow, without active or inactive calls. Compounds called inactive in the main read-out are mostly missing here. The note in brackets gives the kind of curve behind each potency; many fits are weak.

Experiment: IkB Signaling
Conditions: ABC-DLBCL IkBa-CBG/CBR dual luciferase ratio (green luciferase fused to IkBa over red control in OCI-Ly3 lymphoma cells), 4 h; measured here: control luc red channel unless noted
Outline: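 Luminescence ratio of IκBα-fused green versus native red beetle luciferase in OCI-Ly3 cells, 4 h post-doxycycline with compound; red signal alone, scaled from basal (0%) to zero light (-100%), flagged nonspecific or cytotoxic effects.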

| Compound | AC50 |
| --- | --- |
| CCn1c(CN2CCOCC2)nc2cc(NC(=O)c3ccccc3[N+](=O)[O-])ccc21 | 6.31 µM [falling, partial curve] |
| CCN(c1cccc(C(F)(F)F)c1)S(=O)(=O)c1ccc2c(c1)CCN2C(=O)C1CC1 | 15.8 µM [falling, partial curve] |
| COc1cccc(-n2cc(C(=O)Nc3cccc(C(F)(F)F)c3)c3ccccc3c2=O)c1 | 20 µM [falling, partial curve] |
| CC(=O)Nc1cc(-c2nc3cc(Cl)ccc3o2)ccc1C | 25.1 µM [falling, partial curve, poor fit] |
| COc1ccc(NC(=O)CCS(=O)(=O)c2nc(-c3cccs3)cc(C(F)(F)F)n2)cc1 | 2.51 µM [falling, partial curve] |
| Cc1nn2c(CN(C(=O)c3ccco3)c3ccccc3)nnc2c2ccccc12 | 12.6 µM [falling, partial curve] |
| COc1cccc(C2c3c(oc4cc(C)cc(C)c4c3=O)C(=O)N2CCc2ccc(OC)c(OC)c2)c1 (stereo unspecified) | 12.6 µM [falling, single point] |
| CCn1c(SCc2ccccc2C)nc(=O)c2c(C(=O)OC)cc(C3CC3)nc21 | 39.8 µM [falling, single point] |
| COc1ccccc1CNC(=O)CCC1N=C2c3ccccc3N=C(SCC(=O)Nc3ccc(F)cc3)N2C1=O (stereo unspecified) | 7.94 µM [falling, partial curve] |
| CCc1ccc(NS(=O)(=O)c2ccc3oc(=O)c4ncn(CC)c4c3c2)cc1 | 25.1 µM [falling, partial curve] |
| COc1ccc(-n2c(Cc3ccccc3)nnc2SCc2nc(-c3cccs3)no2)cc1 | 31.6 µM [falling, single point] |
| Cc1ccc(-c2cc(C(=O)NCc3cnn(C)c3C)c3ccccc3n2)cc1C | 39.8 µM [falling, partial curve] |
| O=C(C1Cc2ccccc2CN1S(=O)(=O)c1ccc(F)cc1)N1CCCCCC1 (stereo unspecified) | 39.8 µM [falling, single point] |
| N#Cc1ccc(S(=O)(=O)N2CCC(Oc3cccc(C(F)(F)F)c3)CC2)cc1 | 15.8 µM [falling, single point] |
| O=C(NCc1cccs1)c1nn(-c2ccccc2Cl)nc1CO | 31.6 µM [falling, single point] |
| CC1=C(C(=O)Nc2ccccc2)C(c2ccccc2C)n2nc(SCC(=O)c3ccc(C)cc3)nc2N1 (stereo unspecified) | 6.31 µM [rising, full curve, poor fit] |
| Cc1[nH]n(-c2ccccc2)c(=O)c1C(c1cc(Cl)ccc1O)c1c(C)[nH]n(-c2ccccc2)c1=O | 31.6 µM [falling, single point] |
| CCOC(=O)C1=C(C)NC(SCC(=O)Nc2cc(C)on2)=C(C#N)C1c1cccs1 (stereo unspecified) | 15.8 µM [falling, partial curve] |
| O=C(NCCc1csc(-c2ccc(C(F)(F)F)cc2)n1)c1ccc(F)c(F)c1 | 25.1 µM [falling, partial curve] |
| CCOc1ccc(-c2cc(CCCC(=O)NCCc3ccc(Cl)cc3)no2)cc1 | 3.98 µM [falling, partial curve] |
| COC(=O)c1c(-c2cccs2)csc1NC(=O)c1cccc(Cl)c1 | 0.316 µM [rising, full curve] |

| Compound | AC50 |
| --- | --- |
| COC(=O)c1c(-c2cccs2)csc1NC(=O)c1ccc(Br)cc1 | 39.8 µM [falling, single point] |
| CCN(c1cccc(C)c1)S(=O)(=O)c1ccc(-n2cccn2)cc1 | 25.1 µM [falling, partial curve] |
| Cc1nc(Nc2ccncc2)c2oc3ccccc3c2n1 | 25.1 µM [rising, partial curve] [measured here: IkB-luc green channel] |
| Cc1ccc(CN(Cc2ccco2)C(=O)c2ccc(Cl)cc2Cl)cc1 | 15.8 µM [falling, partial curve] |
| Cc1cccc(NC(=O)CSc2ncc(-c3ccc(Br)cc3)[nH]2)c1 | 31.6 µM [rising, single point] [measured here: IkB-luc green channel] |
| Cc1cccc(-c2nc(CCNC(=O)COc3ccccc3)cs2)c1 | 39.8 µM [falling, single point] |
| CN(C)CCNC(=O)c1ccc(-n2c(-c3ccccc3)cc3c2CCCCC3)cc1 | 15.8 µM [falling, partial curve] |
| Oc1ccc(-c2[nH]ncc2-c2ccc(Cl)cc2)c(O)c1 | 10 µM [falling, partial curve] |
| CC(C)Oc1ccc(CN2CCc3nc(Nc4ccc5c(c4)OCCO5)ncc3C2)cc1 | 20 µM [falling, partial curve] |
| O=C1c2ccccc2S(=O)(=O)N1CC(O)Cn1c2ccccc2c2ccccc21 (stereo unspecified) | 10 µM [falling, partial curve] |
| Fc1ccc2nc(Nc3nc4c(s3)CCCC4)sc2c1 | 15.8 µM [falling, partial curve] |
| Cc1ccc(C(=O)Nc2ccccc2C(=O)OCc2cc(=O)n3nc(C(C)C)sc3n2)cc1 | 0.2 µM [rising, full curve, poor fit] |
| Cc1ccc(C)c(NC(=O)CN(C)S(=O)(=O)c2cccc3cccnc23)c1 | 3.98 µM [rising, full curve] |
| Cc1nc2nc(Cc3ccccc3)[nH]n2c(=O)c1Cl | 12.6 µM [falling, partial curve] |
| CCOc1ccccc1NC(=O)C1CCC(CNS(=O)(=O)c2ccc3c(c2)CCCC(=O)N3)CC1 (stereo unspecified) | 20 µM [falling, single point] |
| Cn1c(C(=O)NCCN2CCc3ccccc3C2)cc2c(=O)n(C)c3ccccc3c21 | 39.8 µM [rising, single point] [measured here: IkB-luc green channel] |
| COC(=O)c1ccccc1NC(=O)C1=CC(c2ccc3c(c2)OCO3)=NS(=O)(=O)N1C | 3.16 µM [falling, single point] |
| Fc1ccc(-c2noc3ncnc(Nc4ccc(F)cc4F)c23)cc1 | 1 µM [rising, single point] |
| O=C(CC1N=C2c3ccccc3N=C(SCc3ccc(F)cc3)N2C1=O)NC1CCCCC1 (stereo unspecified) | 0.00631 µM [rising, full curve, poor fit] |
| CCOc1ccc(CCNC(=O)c2cccc(Nc3nc4ccccc4nc3-n3nc(C)cc3C)c2)cc1OCC | 20 µM [falling, partial curve] |
| Cc1ccc(-n2nc3c(N4CCC(C(=O)NC5CCC(C)CC5)CC4)nnc(C)c3c2C)cc1 (stereo unspecified) | 12.6 µM [falling, partial curve] |

Filtered by structure, the compounds so far containing bromine (2)

| Compound | AC50 |
| --- | --- |
| COC(=O)c1c(-c2cccs2)csc1NC(=O)c1ccc(Br)cc1 | 39.8 µM [falling, single point] |
| Cc1cccc(NC(=O)CSc2ncc(-c3ccc(Br)cc3)[nH]2)c1 | 31.6 µM [rising, single point] [measured here: IkB-luc green channel] |

Further compounds

| Compound | AC50 |
| --- | --- |
| CC1=C(C(N)=O)C(c2cccc(O)c2)n2ncnc2N1 (stereo unspecified) | 1.26 µM [falling, full curve] |
| Cc1ccc2sc(N(Cc3cccnc3)C(=O)Cc3ccccc3)nc2c1C | 39.8 µM [falling, single point] |
| CC(=O)c1ccccc1OCC(O)CN1CCN(C(c2ccccc2)c2ccccc2)CC1 (stereo unspecified) | 15.8 µM [falling, partial curve] |
| Cc1ccc(C(=O)c2cn(Cc3ccccc3F)c3cc4c(cc3c2=O)OCCO4)cc1 | 39.8 µM [falling, single point] |
| O=C(c1cc(-c2ccccc2O)on1)N1CCc2ccccc2C1 | 39.8 µM [rising, single point] [measured here: IkB-luc green channel] |
| O=C(COc1ccc(Cl)cc1)N(Cc1ccco1)Cc1ccco1 | 39.8 µM [falling, single point] |
| COc1ccccc1CNC(=O)CCC(=O)N1CC(C)Sc2ccccc21 (stereo unspecified) | 25.1 µM [falling, partial curve] |
| Oc1ccccc1-c1nnc(SCCN2CCOCC2)n1Cc1ccccc1 | 39.8 µM [falling, single point] |
| Cc1cccc(N2CCN(C(=O)CN3C(=O)COc4ccc(S(=O)(=O)N5CCC(C)CC5)cc43)CC2)c1C | 12.6 µM [falling, partial curve] |
| O=S(=O)(Nc1cccc(C(F)(F)F)c1)c1ccc(NS(=O)(=O)c2ccc3c(c2)OCCO3)cc1 | 15.8 µM [falling, partial curve] |
| COc1ccc(C(=O)Nc2cccc(-c3cn4ccsc4n3)c2)c(OC)c1 | 20 µM [falling, single point] |
| Cc1csc2nc(COC(=O)c3cccc(NC(=O)c4cccc(Cl)c4)c3)cc(=O)n12 | 0.794 µM [falling, full curve] |
| CCOc1ccc(C2=NC(c3ccncc3)=Nc3ccc(C)cc3N2)cc1OCC | 15.8 µM [falling, partial curve] |
| COCc1cc(C)nc2sc(C(=O)Nc3ccccc3O)c(N)c12 | 3.98 µM [rising, partial curve] |
| Cc1ccc(OCCn2cc(C(=O)c3cccs3)c3ccccc32)cc1 | 5.01 µM [falling, full curve] |
| COc1ccc(N(Cc2ccccc2)C(=O)c2nc(S(C)(=O)=O)ncc2Cl)cc1 | 3.16 µM [falling, partial curve] |
| Cc1cccc(N2CCN(C(=O)Cn3nc(C)c4sc5ccccc5c4c3=O)CC2)c1C | 7.94 µM [falling, full curve] |
| COc1cccc(C(=O)Nc2ccc(-n3nncc3-c3ccccc3)cc2)c1OC | 25.1 µM [falling, single point] |
| COc1ccc(CNC(=O)Cn2c(=O)nc(-c3ccccc3)c3cc(Cl)ccc32)cc1OC | 39.8 µM [falling, partial curve, poor fit] |
